Source: PMC8845002
Results are given in words; binding and its absence hold for the method and conditions named. In cells and extracts the contact can be indirect. Some entries that bind do so weakly or less than the wild type.

Protein sequences, listed by entry. Tags and fused reporters are not part of them.
UniProt P40763: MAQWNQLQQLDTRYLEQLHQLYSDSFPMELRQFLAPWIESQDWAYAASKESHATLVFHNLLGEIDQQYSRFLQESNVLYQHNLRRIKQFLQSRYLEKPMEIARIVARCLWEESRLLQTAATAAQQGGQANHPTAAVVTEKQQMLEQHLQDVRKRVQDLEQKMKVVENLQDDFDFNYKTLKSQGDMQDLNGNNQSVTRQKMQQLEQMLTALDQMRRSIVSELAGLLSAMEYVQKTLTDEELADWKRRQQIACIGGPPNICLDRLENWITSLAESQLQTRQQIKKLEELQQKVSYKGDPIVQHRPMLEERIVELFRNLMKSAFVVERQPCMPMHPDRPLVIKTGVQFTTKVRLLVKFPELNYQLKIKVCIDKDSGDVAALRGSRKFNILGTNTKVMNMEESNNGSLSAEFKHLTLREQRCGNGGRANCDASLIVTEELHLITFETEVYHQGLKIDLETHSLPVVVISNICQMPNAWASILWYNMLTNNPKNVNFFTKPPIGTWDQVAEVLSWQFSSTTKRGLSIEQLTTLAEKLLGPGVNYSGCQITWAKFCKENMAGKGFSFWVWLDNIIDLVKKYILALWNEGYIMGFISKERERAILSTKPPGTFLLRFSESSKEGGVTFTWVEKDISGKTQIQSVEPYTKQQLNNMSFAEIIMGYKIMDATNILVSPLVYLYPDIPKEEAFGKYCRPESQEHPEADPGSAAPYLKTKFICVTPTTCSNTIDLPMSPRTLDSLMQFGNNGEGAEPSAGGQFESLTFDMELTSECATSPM
UniProt Q04695: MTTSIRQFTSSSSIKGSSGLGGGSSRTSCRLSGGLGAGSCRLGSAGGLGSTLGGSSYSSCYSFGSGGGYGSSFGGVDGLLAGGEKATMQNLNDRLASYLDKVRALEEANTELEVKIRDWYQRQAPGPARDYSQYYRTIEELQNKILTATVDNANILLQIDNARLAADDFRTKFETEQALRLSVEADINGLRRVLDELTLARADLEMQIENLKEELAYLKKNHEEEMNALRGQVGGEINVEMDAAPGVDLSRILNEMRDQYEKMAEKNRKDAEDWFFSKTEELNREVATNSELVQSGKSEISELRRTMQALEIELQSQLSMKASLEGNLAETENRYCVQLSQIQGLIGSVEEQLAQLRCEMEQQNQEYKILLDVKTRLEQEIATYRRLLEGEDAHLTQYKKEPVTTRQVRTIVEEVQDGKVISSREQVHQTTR
UniProt Q04206: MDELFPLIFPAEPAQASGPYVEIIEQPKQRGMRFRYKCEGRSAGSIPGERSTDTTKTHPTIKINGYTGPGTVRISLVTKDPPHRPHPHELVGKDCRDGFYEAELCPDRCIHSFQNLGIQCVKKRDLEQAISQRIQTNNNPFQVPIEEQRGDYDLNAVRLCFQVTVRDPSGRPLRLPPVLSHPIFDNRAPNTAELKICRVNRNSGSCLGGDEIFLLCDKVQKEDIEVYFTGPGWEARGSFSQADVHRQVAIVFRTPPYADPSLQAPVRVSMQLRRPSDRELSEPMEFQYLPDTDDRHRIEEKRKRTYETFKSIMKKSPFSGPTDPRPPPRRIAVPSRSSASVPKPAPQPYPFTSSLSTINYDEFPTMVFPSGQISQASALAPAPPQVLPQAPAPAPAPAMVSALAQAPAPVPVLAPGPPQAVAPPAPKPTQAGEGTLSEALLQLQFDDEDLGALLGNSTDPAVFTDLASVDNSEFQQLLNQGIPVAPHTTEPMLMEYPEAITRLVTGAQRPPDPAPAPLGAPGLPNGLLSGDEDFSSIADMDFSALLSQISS

Tests used:
[1] = target: signal transducer and activator of transcription 3 (human (endogenous in HaCaT)) (UniProt P40763); test: co-IP; whole-cell lysates incubated with anti-STAT3 for 3 h, then Protein A/G PLUS-Agarose at 4°C overnight, four PBS washes, immunoblot; cells with or without leptomycin B (LMB); anti-IgG control
[2] = target: Keratin 17 (human (endogenous in HaCaT)) (UniProt Q04695); test: co-IP; whole-cell lysates incubated with anti-K17 for 3 h, then Protein A/G PLUS-Agarose at 4°C overnight, four PBS washes, immunoblot; cells with or without leptomycin B (LMB); anti-IgG control

Row | binding [1] | binding [2] | Substance
1 | binds |  | Keratin 17 (from UniProt Q04695 1-432)
2 |  | no binding | p65 (from UniProt Q04206 1-551)
3 |  | binds | signal transducer and activator of transcription 3 (from UniProt P40763 1-770)
